The values are deposited in ChEMBL (CHEMBL3988442, “University of Dundee, Small-Polar-MMV Screening Library” (2021)).

Values are the deposited “Percent Effect”, in %.
The controls that fix the scale are not given in the record; negative values are as filed.
The compounds are a random part of those screened.

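Whole-cell growth test on Mycobacterium tuberculosis, read after 4 days in a medium based on cholesterol and the lipid DPPC; the read-out is not stated. Compounds at 500 µM. Direction is inferred from retests: higher values go with more growth inhibition. About 18,000 compounds were tested under these conditions; 5% (about 900) showed 50% or more at least once.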

| structure | Percent Effect |
|---|---|
| `Cc1n[nH]cc1CNCc1nccs1` | -2.467 |
| `CSCCCNC(=O)Nc1ncnn1C` | 4.788 |
| `CSCC(=O)N1CCCCCC1` | -6.266 |
| `OCCCNC1CC1` | 7.758 |
| `CC(=O)N1CCC2(CCNC2)C1` (stereo not shown) | 7.157 |
| `N#Cc1cccnc1NCc1ccc2c(c1)OCO2` | 22.79 |
| `Cc1cccn2cc(CC(=O)NC(C)C#N)nc12` (stereo not shown) | -1.506 |
| `CC(C)c1nnc(NC(=O)N2CCN(C)CC2C)s1` (stereo not shown) | 6.328 |
| `Cc1ccc(C)c2c(=O)cc(CN3CCC(N)C3)[nH]c12` (stereo not shown) | 36.55 |
| `Cc1ccoc1C(=O)NCc1ccnc(N(C)C)c1` | 15.96 |
| `Cc1c[nH]c(C(=O)N2CC[C@@](O)(C3CCC3)[C@H](C)C2)n1` | 1.109 |
| `CC(C)(C)NC(=O)Cn1cnc2ncccc2c1=O` | -19.14 |
| `COc1ccccc1C(N)c1noc(C)n1` (stereo not shown) | 6.766 |
| `Cc1ccc2ncc(CCN)cc2c1` | 23.78 |
| `COc1cc(C(=O)NC2CC2)cc(Cl)c1O` | 12.75 |
| `CC(C)c1nsc(NCC2=COCCO2)n1` | 21.04 |
| `COc1ccc(C(=O)N2CCNCC2)c(OC)c1` | -0.121 |
| `CC(C)Cn1[nH]ccc1=NC(=O)Cn1cnc(C#N)n1` | -18.02 |
| `Cc1cc(C(=O)N2CCn3cccc3C2C)no1` (stereo not shown) | -56.57 |
| `Cn1cnc2cc(F)ccc21` | 2.112 |
| `CNC(=O)c1c(N)cnn1C` | 20.05 |
| `CCOC(=O)c1cccnc1-n1cc(Br)cn1` | 34.86 |
| `Cc1cc(C)nc(NC(=O)Cc2cc(C)on2)n1` | 4.089 |
| `CSCc1nc(CN)cs1` | 7.216 |
| `CN(CC(N)=O)Cc1cncn1C1CCCCC1` | 5.961 |
| `OCCNC1CCCSC1` (stereo not shown) | 9.653 |
| `CNCc1cccc(-n2cccn2)c1` | -4.17 |
| `CNC(=O)CSc1ncc2ccccn12` | -10.96 |
| `COc1ccc(S(=O)(=O)N2CC=C(C)CC2)cc1` | -22.7 |
| `CCOc1ccccc1OCC1CNCCO1` (stereo not shown) | 21.87 |
| `C/C=C/c1ccc(OCCN2CCNCC2)c(OC)c1` | 41.57 |
| `CC(=O)c1ccc(C(=O)NC(C)c2nc(C)c[nH]2)s1` (stereo not shown) | -3.201 |
| `O=C(CCc1ccccc1)N1CCCNCC1` | 18.36 |
| `CC(C)C(NC(=O)C1=COCCO1)c1ccccc1` (stereo not shown) | -8.072 |
| `COc1ccc(CCN)c(F)c1` | 14.02 |
| `Cc1ccc(N)nn1` | -0.5385 |
| `COc1ccc(CN(C)[C@@H]2CCCC[C@@H]2O)cn1` | -4.136 |
| `CCNC(=O)c1ccc(CNS(=O)(=O)N(C)C)cc1` | -8.731 |
| `CC1CCN(CC(N)=O)CC1` | -8.974 |
| `O=C(Nc1cccnc1)c1ccccc1-n1cnnn1` | 27.89 |
| `Cc1nc(C)n(CCNC(=O)C2CCCCCN2C)n1` (stereo not shown) | 8.957 |
| `CNS(=O)(=O)c1cccc(C(=O)Nc2cccnc2)c1` | -2.149 |
| `O=C([C@@H]1CCCN1)N1CCCC1c1cccnc1` (stereo partly shown) | -1.75 |
| `Cc1ocnc1CNC(=O)c1ccon1` | -14.1 |
| `CC(C)CS(=O)(=O)N1CCC(N)CC1` | 9.974 |
| `N#Cc1ccc(OCCOCCn2cncn2)cc1` | 14.05 |
| `O=C1CC(c2cccnc2)=NCCN1` | -10.62 |
| `COc1cccc(CNc2nc(C)no2)c1` | 43.63 |
| `NC(=O)NCC1CCCN(C(=O)NC2CCCCC2)C1` (stereo not shown) | 16.34 |
| `COCCNCC(=O)Nc1cccc(S(N)(=O)=O)c1` | -7.504 |
| `CNC(=O)Cc1noc(-c2occc2C)n1` | -6.166 |
| `COC[C@@H]1CCCN1C(=O)Nc1ccc(C(C)=O)cc1` | 23.46 |
| `OC1CCN(c2ccccn2)CC1` | 0.5004 |
| `Cc1ccc2c(c1)N(S(=O)(=O)N1CCCC1)CC(C)O2` (stereo not shown) | -6.354 |
| `Cc1ccc(F)c(S(=O)(=O)N2C[C@H](C3CC3)[C@@H](N)C2)c1` | 31.85 |
| `COc1cccc(NC(=O)CN2CCC(O)CC2)c1` | 6.765 |
| `Cc1cc(C)nc(NC(=O)c2ccncc2)c1` | -4.019 |
| `Cn1cc(C(=O)NCc2ccccc2)cn1` | 17.15 |
| `Cc1nn(C)c2c1NC(=O)CO2` | -21.4 |
| `Nc1cc(CN2CCOC(COCC3CC3)C2)ccn1` (stereo not shown) | 19.6 |
| `O=C(NCC1(O)CCOC1)c1ccn(C2CCCC2)n1` (stereo not shown) | 2.431 |
| `COCCN1C(=O)c2ccccc2C1=O` | 9.337 |
| `COCCNC(=O)c1cn(-c2cccc(Br)c2)nn1` | -1.637 |
| `COc1ccccc1S(=O)(=O)NC1CCN(C)CC1` | 1.099 |
| `CC(=O)N1CCC(CCOc2cccnc2)CC1` | 18.68 |
| `OCCN(CCO)Cc1cc(Br)cc2cccnc12` | 32.82 |
| `CC(C)c1nnc(CN(C)CC(O)C2CC2)o1` (stereo not shown) | 0.1938 |
| `CSc1cc(CN)ccn1` | 4.636 |
| `Cc1cc(NC(=O)C(C)OC(=O)c2ccccn2)no1` (stereo not shown) | 20.19 |
| `CCN(C)C(=O)Nc1cnns1` | -3.586 |
| `NS(=O)(=O)CCCOC(=O)CCc1ccsc1` | 7.056 |
| `O=C1C=CC(=O)N1c1ccccc1OC(F)F` | 114.3 |
| `CNCC(=O)Nc1ccc(C)cc1C(=O)N(C)C` | -4.681 |

The first 7 entries again:

structure	Percent Effect
Cc1n[nH]cc1CNCc1nccs1	-2.467
CSCCCNC(=O)Nc1ncnn1C	4.788
CSCC(=O)N1CCCCCC1	-6.266
OCCCNC1CC1	7.758
CC(=O)N1CCC2(CCNC2)C1 (stereo not shown)	7.157
N#Cc1cccnc1NCc1ccc2c(c1)OCO2	22.79
Cc1cccn2cc(CC(=O)NC(C)C#N)nc12 (stereo not shown)	-1.506